# According to PubChem BioAssay AID1347075 (National Center for Advancing Translational Sciences (NCATS), 2019):
# In all, about 400,000 compounds went through this assay and about 5,500 (1.4%) were called active. Inconclusive means that the source gave no clear call. Such entries were picked first, then a sample of the others. The call rests on the fitted dose curve; in most records, active means well fitted cell-killing curve with a large enough effect; inconclusive means small, poorly fitted or top-dose-only effect, or effect the other way; inactive means flat fitted curve, though single readings scatter. Potencies beside an inconclusive call are fits to weak or partial responses and may not hold up.
# Assay: qHTS assay for MDR1-selective chemotherapeutics: Primary screen using the parental adenocarcinoma cell KB-3-1; further: nearly all actives have a fitted effect of over 60% in size
# Conditions: KB-3-1 viability, CellTiter-Glo ATP luminescence, 72 h; activity change, negative = cytotoxic: at 46.1 µM (top of the series)
# How it was run: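 72 h, 37 °C compound treatment of KB-3-1 parental cells; CellTiter-Glo added, 10 min, luminescence read. Data corrected against DMSO-only plates and normalized before curve fitting.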
# On the % scale 0 is the no-effect control and ±100 the full control effect; potency means the concentration at half of the fitted maximal effect.
SMILES,Potency,"activity change, negative = cytotoxic"
Cc1cccc(N(C)C(=O)c2cc3c(=O)[nH]c4ccc(C)cc4c3s2)c1,active: 7.31 µM,
Cc1cc(=O)n2[nH]c(-c3ccc(Cl)cc3)cc2n1,,inconclusive: 0.0578%
Cc1ccc(-n2c(=O)[nH]c3c(C(N)=O)nc(C(C)C)nc32)cc1,,inactive: -11.7%
Cn1ncc(Cl)c1C(=O)NCc1ccc2c(c1)OCO2,,inactive: -5.71%
CCCCCC(=O)OCc1ccc(C2=CC(=O)CC(C)(C)C2=O)cc1,,inactive: 0%
CCOc1ccccc1C(=O)N[C@H](C(=O)OCc1cc(=O)oc2cc(C)ccc12)C(C)C,,inactive: 0%
Oc1ccc2ccccc2c1C=NCc1ccccc1,"inconclusive: 32.6 µM [cytotoxic, single point]",
COc1ccc(NC(=O)c2cc3ccc4c5ccccc5[nH]c4c3cc2O)cc1,"inconclusive: 8.2 µM [cytotoxic, partial curve]",
CN(CCc1ccccc1)C(=O)c1ccc(NC(=O)Cc2ccc(NC(=O)C3CCCN(C(=O)c4ccccc4)C3)cc2)cc1 (stereo not given),"inconclusive: 25.9 µM [cytotoxic, single point]",
COC(=O)c1c(C)[nH]c(C(=O)C(C)OC(=O)C2CC2)c1C (stereo not given),"inconclusive: 23.1 µM [cytotoxic, partial curve, poor fit]",
O=C(NNC(=O)c1ccccc1O)c1ccc(Cl)c(S(=O)(=O)N2CCc3ccccc32)c1,"inconclusive: 13 µM [cytotoxic, partial curve]",
CCCN(CC(=O)Nc1cc(Cl)ccc1Cl)C(=O)/C=C/c1cc(OC)ccc1OC,,inactive: -15.5%
Cc1ccc(-c2noc(CSc3nnc(-c4ccncc4)n3-c3ccc(C)cc3)n2)cc1,"inconclusive: 20.6 µM [cytotoxic, single point]",
Cc1ccc(Cl)cc1N1CCN(S(=O)(=O)c2c(C)nc3scc(C)n3c2=O)CC1,"inconclusive: 29.1 µM [cytotoxic, single point]",
CCOc1cc(CNCCO)cc(Br)c1OCc1ccccc1,"inconclusive: 29.1 µM [cytotoxic, single point]",
O=C(Nc1cccc(Cl)c1)OCCOCCOC(=O)Nc1cccc(Cl)c1,"inconclusive: 16.4 µM [cytotoxic, single point]",
COc1cccc(/C(N)=N/OC(=O)Cc2ccccc2[N+](=O)[O-])c1,,inactive: 2.17%
CN1CCCCC1(C)C(=O)NCc1ccc(F)cc1 (stereo not given),,inactive: 0%
O=C(Nc1ccccc1)c1snc2c(=O)[nH]cnc12,"inconclusive: 20.6 µM [cytotoxic, single point]",
O=c1[nH]c2cc3c(cc2cc1C(c1nnnn1C1CCCC1)N1CCSCC1)OCCO3 (stereo not given),"inconclusive: 0.651 µM [cytotoxic, full curve, poor fit]",

# Looked up one by one from above, two records:
SMILES,Potency,"activity change, negative = cytotoxic"
Cn1ncc(Cl)c1C(=O)NCc1ccc2c(c1)OCO2,,inactive: -5.71%
CN(CCc1ccccc1)C(=O)c1ccc(NC(=O)Cc2ccc(NC(=O)C3CCCN(C(=O)c4ccccc4)C3)cc2)cc1 (stereo not given),"inconclusive: 25.9 µM [cytotoxic, single point]",
